Laboratory results as given in publication PMC11130212.
No constants are given. Whether binding was seen depends on the method and setting. Binding seen in cells or lysates may run through a third protein. Some results given as binding are weak or reduced against the parent protein; the word gives no strength.

Protein sequences, listed by entry. Tags and fused reporters are not part of them.
UniProt P68871: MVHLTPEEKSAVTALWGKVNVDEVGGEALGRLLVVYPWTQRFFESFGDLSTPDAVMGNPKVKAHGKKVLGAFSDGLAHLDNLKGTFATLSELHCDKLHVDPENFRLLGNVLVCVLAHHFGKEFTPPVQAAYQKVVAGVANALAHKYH

Target: hemoglobin subunit beta (HBB) (UniProt P68871)
Experiment: co-IP; AC16 cell lysate (1% NP40, 150 mM NaCl, 50 mM Tris HCl pH 8.0), anti-HBB antibody or rabbit IgG, with or without aconitine (AC), overnight at 4 °C; dyna-beads A and G 2 h at 4 °C; Western blot

binding: binds
B1: ABHD5 (protein, UniProt Q8WTS1 1-349)
chain: MAAEEEEVDSADTGERSGWLTGWLPTWCPTSISHLKEAEEKMLKCVPCTYKKEPVRISNGNKIWTLKFSHNISNKTPLVLLHGFGGGLGLWALNFGDLCTNRPVYAFDLLGFGRSSRPRFDSDAEEVENQFVESIEEWRCALGLDKMILLGHNLGGFLAAAYSLKYPSRVNHLILVEPWGFPERPDLADQDRPIPVWIRALGAALTPFNPLAGLRIAGPFGLSLVQRLRPDFKRKYSSMFEDDTVTEYIYHCNVQTPSGETAFKNMTIPYGWAKRPMLQRIGKMHPDIPVSVIFGARSCIDGNSGTSIQSLRPHSYVKTIAILGAGHYVYADQPEEFNQKVKEICDTVD
